# Test results taken from paper doi:10.1101/869503.
# Amino acid sequences for entries named in this document (tags omitted). Residues count along the entry.
# UniProt Q62956, residues 26-1308: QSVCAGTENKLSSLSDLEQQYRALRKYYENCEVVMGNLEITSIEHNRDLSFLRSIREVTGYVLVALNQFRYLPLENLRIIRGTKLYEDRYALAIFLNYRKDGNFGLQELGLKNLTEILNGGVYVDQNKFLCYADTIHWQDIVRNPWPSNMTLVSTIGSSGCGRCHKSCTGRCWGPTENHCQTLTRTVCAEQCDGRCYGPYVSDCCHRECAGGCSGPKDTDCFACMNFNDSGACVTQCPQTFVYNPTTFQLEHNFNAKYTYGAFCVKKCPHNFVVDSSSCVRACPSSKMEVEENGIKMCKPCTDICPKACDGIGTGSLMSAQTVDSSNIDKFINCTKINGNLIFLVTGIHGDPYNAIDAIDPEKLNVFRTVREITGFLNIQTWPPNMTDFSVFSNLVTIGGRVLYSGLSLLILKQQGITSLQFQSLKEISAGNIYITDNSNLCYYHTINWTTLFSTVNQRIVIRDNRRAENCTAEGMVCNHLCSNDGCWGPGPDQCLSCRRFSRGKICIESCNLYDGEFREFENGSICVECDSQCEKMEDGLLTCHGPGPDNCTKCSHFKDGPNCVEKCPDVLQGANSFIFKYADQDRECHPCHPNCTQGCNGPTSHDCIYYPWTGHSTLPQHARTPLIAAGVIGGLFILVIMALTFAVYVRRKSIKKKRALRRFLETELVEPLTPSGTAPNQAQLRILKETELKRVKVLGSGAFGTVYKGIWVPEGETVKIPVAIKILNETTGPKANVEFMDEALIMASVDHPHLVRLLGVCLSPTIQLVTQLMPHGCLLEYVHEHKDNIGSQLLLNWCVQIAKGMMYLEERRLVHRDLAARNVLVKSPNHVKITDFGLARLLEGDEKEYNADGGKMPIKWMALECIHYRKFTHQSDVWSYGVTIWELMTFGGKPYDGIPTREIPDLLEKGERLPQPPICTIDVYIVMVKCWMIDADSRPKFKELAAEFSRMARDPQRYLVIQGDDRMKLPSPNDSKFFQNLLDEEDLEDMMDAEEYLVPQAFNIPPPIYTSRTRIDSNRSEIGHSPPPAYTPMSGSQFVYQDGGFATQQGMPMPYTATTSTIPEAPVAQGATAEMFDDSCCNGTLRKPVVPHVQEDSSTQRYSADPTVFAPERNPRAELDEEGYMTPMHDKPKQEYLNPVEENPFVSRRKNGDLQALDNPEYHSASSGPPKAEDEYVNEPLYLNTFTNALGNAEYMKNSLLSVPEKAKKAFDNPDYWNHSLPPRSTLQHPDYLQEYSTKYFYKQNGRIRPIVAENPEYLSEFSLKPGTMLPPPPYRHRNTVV
# These are yes or no findings as the source states them, for the method shown. Binding seen in cells or lysates may run through a third protein. Some results given as binding are weak or reduced against the parent protein; the word gives no strength.
# B1: Neuregulin-1 (ligand, UniProt P43322 14-662)
# chain: KKKDRGSRGKPGPAEGDPSPALPPRLKEMKSQESAAGSKLVLRCETSSEYSSLRFKWFKNGNELNRKNKPENIKIQKKPGKSELRINKASLADSGEYMCKVISKLGNDSASANITIVESNEFITGMPASTETAYVSSESPIRISVSTEGANTSSSTSTSTTGTSHLIKCAEKEKTFCVNGGECFTVKDLSNPSRYLCKCPNEFTGDRCQNYVMASFYMTSRRKRQETEKPLERKLDHSLVKESKAEELYQKRVLTITGICIALLVVGIMCVVAYCKTKKQRQKLHDRLRQSLRSERSNLVNIANGPHHPNPPPENVQLVNQYVSKNVISSEHIVEREVETSFSTSHYTSTAHHSTTVTQTPSHSWSNGHTESVISESNSVIMMSSVENSRHSSPAGGPRGRLHGLGGPRDNSFLRHARETPDSYRDSPHSERYVSAMTTPARMSPVDFHTPSSPKSPPSEMSPPVSSMTVSMPSVAVSPFVEEERPLLLVTPPRLREKKYDHHPQQLNSFHHNPAHQSTSLPPSPLRIVEDEEYETTQEYESVQEPVKKVTNSRRAKRTKPNGHIANRLEMDSNTSSVSSNSESETEDERVGEDTPFLGIQNPLAASLEVAPAFRLAESRTNPAGRFSTQEELQARLSSVIANQDPIAV
# What was measured:
# [1] = target: T1, Neuregulin-1 (rat (endogenous in primary hippocampal neurons)) (UniProt P43322); experiment: co-IP
# T1 sequence: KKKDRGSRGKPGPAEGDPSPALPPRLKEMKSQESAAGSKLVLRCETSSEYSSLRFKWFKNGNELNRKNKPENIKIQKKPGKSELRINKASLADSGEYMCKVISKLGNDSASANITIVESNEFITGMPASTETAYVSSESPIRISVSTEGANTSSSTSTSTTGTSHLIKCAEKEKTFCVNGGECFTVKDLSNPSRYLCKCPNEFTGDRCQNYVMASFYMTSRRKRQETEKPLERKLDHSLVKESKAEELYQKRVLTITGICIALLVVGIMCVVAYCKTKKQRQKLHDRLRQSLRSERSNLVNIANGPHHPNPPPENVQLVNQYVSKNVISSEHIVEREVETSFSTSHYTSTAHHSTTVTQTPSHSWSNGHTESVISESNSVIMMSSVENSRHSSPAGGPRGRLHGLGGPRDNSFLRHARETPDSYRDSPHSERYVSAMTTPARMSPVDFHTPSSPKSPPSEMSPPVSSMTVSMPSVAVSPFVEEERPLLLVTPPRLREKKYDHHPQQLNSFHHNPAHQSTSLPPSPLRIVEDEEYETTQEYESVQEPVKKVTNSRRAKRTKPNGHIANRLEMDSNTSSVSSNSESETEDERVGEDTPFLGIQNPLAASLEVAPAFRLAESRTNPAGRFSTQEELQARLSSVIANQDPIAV
# [2] = target: ErbB4 (rat (endogenous in primary hippocampal neurons)) (UniProt Q62956); experiment: co-IP
binding [1],binding [2],Molecule
binds,,ErbB4 (from UniProt Q62956 26-1308) (receptor)
,binds,B1
